{
  "source": "patent US11945787B2",
  "about": "“Substituted imidazoles for preventing and/or treating cell or tissue necrosis” (Ela Pharma Ltd, priority 2015, dated 2024)",
  "test_system": "PC12 cells",
  "assay": "KCN-induced necrosis of PC12 cells, LDH release",
  "assay_type": "cell-based, rat",
  "conditions": "PC12, LDH release (Table 5)",
  "protocol": "The rat pheochromocytoma PC12 cell line was propagated in DMEM medium (Beit Haemek, Israel), supplemented with 5% heat-inactivated calf serum, 10% heat-inactivated horse serum, 2 mM L-glutamine, 100 U/ml penicillin and 100 μg/ml streptomycin. PC12 cells in logarithmic phase were seeded at a concentration of 1.2×10^5/well in 96-well plates and incubated overnight.\nThereafter, the cells were washed twice and maintained in RPMI-1640 (U-937cells) and DMEM (PC-12 cells) glucose-free medium, supplemented with 2 mM pyruvate and 10% dialyzed FCS for one hour. […]\nThe amount of LDH released from lysed cells is a sensitive measure of cell death. Necrotic cell death was measured in 96-well plates using Promega CytoTox 96 LDH assay kit. […] The LDH released in culture medium was used as an index of necrotic cell death and the percentage from total LDH was calculated. The protection by the inhibitor was calculated based on comparing percentage of LDH release in the presence and in the absence of the inhibitor. […] Absorbance at 490 nm was measured by ELISA reader (BioTec).\nThese compounds were tested for their ability to inhibit necrosis induced by KCN in PC12 cells. […] The protective results of the compounds against KCN-induced necrosis assessed using LDH release method are shown below in Table 5. […]",
  "note": "The name of at least one read-out is uncertain.",
  "data": [
    {"compound": "Cn1c(=O)[nH]c(=O)c2[nH]c(N3CCCCC3)nc21", "note": "[D226-0031, 3-methyl-8-(piperidin-1-yl)-1H-purine-2,6(3H,7H)-dione]", "values": [
      {"measurement": "% protection at 1 μM", "value": 53, "unit": "%"}
    ]}
  ]
}
